Measurements from US20260256913A1 (UTC TYHERAPEUTICS SHANGNAI, published 2026).
No constants are given. Whether binding was seen depends on the method and setting. Some binding calls cover weakened binding; strength is not graded here.

By UniProt entry, the sequences of proteins in these tests, tags left out. Where a name states a change or a piece, a line headed by the entry shows the natural chain unless it says otherwise.
UniProt P25942: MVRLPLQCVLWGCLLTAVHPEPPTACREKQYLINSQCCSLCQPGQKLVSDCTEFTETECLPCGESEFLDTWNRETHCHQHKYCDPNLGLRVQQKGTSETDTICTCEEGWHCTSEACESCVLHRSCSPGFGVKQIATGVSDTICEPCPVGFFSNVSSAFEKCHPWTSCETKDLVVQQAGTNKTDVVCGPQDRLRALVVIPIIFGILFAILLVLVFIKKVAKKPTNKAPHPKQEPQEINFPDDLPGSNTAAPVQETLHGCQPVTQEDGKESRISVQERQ

Biological target: T1, CD40-Fc recombinant protein (human, UniProt P25942 21-193)
T1 construct: also called CD40-Fc protein; CD40-Fc antigen; not shown: Fc part; detected with anti-human IgG Fc antibody
Assay: FACS staining, CAR-T cells of donor ND020 co-expressing LACO (FIG. 52)

- binding: binds
B1: LACO-A4D11C2828 (protein)
chain: QLQLQESGPGLLKPSETLSLTCTVSGGSISSPGYYGGWIRQPPGKGLEWIGSIYKSGSTYHNPSLKSRVTISVDTSKNQFSLKLSSVTAADTAVYYCTRPVVRYFGWFDPWGQGTLVTVSSASGGGGSGGGGSGGGGSAIQLTQSPSSLSASVGDRVTITCRASQGISSALAWYQQKPGKAPKLLIYDASNLESGVPSRFSGSGSGTDFTLTISSLQPEDFATYYCQQFNSYPTFGQGTKVEIKRTEIEVMYPPPYLDNEKSNGTIIHVKGKHLCPSPLFPGPSKPFWVLVVVGGVLACYSLLVTVAFIIFWVRSKRSRLLHSDYMNMTPRRPGPTRKHYQPYAPPRDFAAYRS
